# Measurements reported in PubChem BioAssay AID1259405 (NCATS, 2018)
# Aim: 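Knock-downs that lift recombinant protein yield in hamster ovary cells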 (primary screen)
# Cell system: Chinese hamster CHO-K1 ovary cells with stable secreted eGFP expression
# Reagents: single siRNA against mouse genes, 0.8 pmol siRNA per well (2 µl of 400 nM stock)
# Duration: 3 days
# Read-out: 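Per-well intracellular GFP measured by laser scanning cytometry, plus viability from ATP luminescence, each relative to plate median of non-targeting control wells, in %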
# Scale: GFP, % of control: higher = more GFP per well, higher productivity; viability (ATP), % of control: higher = more viable cells (more ATP)
# Hit rule: 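a knock-down is called active if GFP reaches 120% or more of non-targeting control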
# The deposit covers about 50,000 reagents; shown is an unselected part. Of all reagents, about 4,000 (8%) got an active call. 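Mouse siRNA library applied to hamster cells; one well for each siRNA.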 Reagents against one gene are numbered here.
"GFP, % of control","viability (ATP), % of control",Outcome,Target gene,reagent no.
37,48.5,inactive,Krtap5-4 (keratin associated protein 5-4),1
90.8,88.9,inactive,Krtap5-4 (keratin associated protein 5-4),2
170,59.8,active,Krtap5-4 (keratin associated protein 5-4),3
73,92.4,inactive,Evc (EvC ciliary complex subunit 1),1
115,115,inactive,Evc (EvC ciliary complex subunit 1),2
67.7,64.3,inactive,Evc (EvC ciliary complex subunit 1),3
86.6,70.3,inactive,Styk1 (serine/threonine/tyrosine kinase 1),1
196,85.2,active,"Fam120b (family with sequence similarity 120, member B)",1
83.9,78,inactive,"Fam120b (family with sequence similarity 120, member B)",2
84.4,117,inactive,"Fam120b (family with sequence similarity 120, member B)",3
102,79,inactive,Arhgap9 (Rho GTPase activating protein 9),1
53.5,103,inactive,Arhgap9 (Rho GTPase activating protein 9),2
91.2,115,inactive,Arhgap9 (Rho GTPase activating protein 9),3
40.6,49,inactive,Ctsk (cathepsin K),1
55.1,20.2,inactive,Ctsk (cathepsin K),2
36.3,32.2,inactive,Ctsk (cathepsin K),3
54.5,56.6,inactive,"Tsc22d1 (TSC22 domain family, member 1)",1
89.2,90.8,inactive,"Tsc22d1 (TSC22 domain family, member 1)",2
62.7,54.5,inactive,"Tsc22d1 (TSC22 domain family, member 1)",3
82.8,72.6,inactive,Picalm (phosphatidylinositol binding clathrin assembly protein),1
91.8,77.6,inactive,Picalm (phosphatidylinositol binding clathrin assembly protein),2
88,100,inactive,Picalm (phosphatidylinositol binding clathrin assembly protein),3
91.9,82.3,inactive,"Prkch (protein kinase C, eta)",1
48.2,56.5,inactive,"Prkch (protein kinase C, eta)",2
80.7,66.9,inactive,"Prkch (protein kinase C, eta)",3

Ordered by “viability (ATP), % of control” (descending): 4 of the entries above.
"GFP, % of control","viability (ATP), % of control",Outcome,Target gene,reagent no.
91.2,115,inactive,Arhgap9 (Rho GTPase activating protein 9),3
53.5,103,inactive,Arhgap9 (Rho GTPase activating protein 9),2
102,79,inactive,Arhgap9 (Rho GTPase activating protein 9),1
40.6,49,inactive,Ctsk (cathepsin K),1

Further results:
"GFP, % of control","viability (ATP), % of control",Outcome,Target gene,reagent no.
40.3,57,inactive,Chmp3 (charged multivesicular body protein 3),1
116,65,inactive,Chmp3 (charged multivesicular body protein 3),2
52.5,53.5,inactive,Chmp3 (charged multivesicular body protein 3),3
36.3,66.1,inactive,Zfp445 (zinc finger protein 445),1
60.7,48.9,inactive,Zfp445 (zinc finger protein 445),2
55.2,59.5,inactive,Pth2 (parathyroid hormone 2),1
60.1,80.1,inactive,Pth2 (parathyroid hormone 2),2
37.1,49.2,inactive,Pth2 (parathyroid hormone 2),3
65.6,74.6,inactive,Fhl4 (four and a half LIM domains 4),1
62.7,62.2,inactive,Fhl4 (four and a half LIM domains 4),2
148,96.8,active,Fhl4 (four and a half LIM domains 4),3
64.5,137,inactive,"Ugt2a2 (UDP glucuronosyltransferase 2 family, polypeptide A2)",1
80.9,118,inactive,"Ugt2a2 (UDP glucuronosyltransferase 2 family, polypeptide A2)",2
82.3,123,inactive,"Ugt2a2 (UDP glucuronosyltransferase 2 family, polypeptide A2)",3
92,81.3,inactive,Slc12a2,1
67.9,66.4,inactive,Slc12a2,2
89.7,66.7,inactive,Slc12a2,3
122,66.1,active,Calcoco1 (calcium binding and coiled coil domain 1),1
189,124,active,Calcoco1 (calcium binding and coiled coil domain 1),2
60.2,70.4,inactive,Calcoco1 (calcium binding and coiled coil domain 1),3
126,108,active,Pitx3 (paired-like homeodomain transcription factor 3),1
65.1,94.3,inactive,Pitx3 (paired-like homeodomain transcription factor 3),2
55.4,86.4,inactive,Serpinb3d,1
55,82.6,inactive,Serpinb3d,2
52.5,80.2,inactive,Serpinb3d,3
83.6,46.3,inactive,Fgf3 (fibroblast growth factor 3),1
73.4,30.7,inactive,Fgf3 (fibroblast growth factor 3),2
73.5,57.8,inactive,Fgf3 (fibroblast growth factor 3),3
59.5,95.3,inactive,Hey2 (hairy/enhancer-of-split related with YRPW motif 2),1
82,89.9,inactive,Hey2 (hairy/enhancer-of-split related with YRPW motif 2),2
99.3,91.9,inactive,"Tafazzin (tafazzin, phospholipid-lysophospholipid transacylase)",1
68.5,89.2,inactive,"Tafazzin (tafazzin, phospholipid-lysophospholipid transacylase)",2
132,112,active,"Tafazzin (tafazzin, phospholipid-lysophospholipid transacylase)",3
